Laboratory results from article PMC11196597.
No constants are given. Whether binding was seen depends on the method and setting. In cells and extracts the contact can be indirect. Some binding calls cover weakened binding; strength is not graded here. For some assays here: Tags and fused reporters may be left off the sequences shown.

Sequences of proteins named here, by UniProt entry; tags and fusion partners are left off.
UniProt P40337: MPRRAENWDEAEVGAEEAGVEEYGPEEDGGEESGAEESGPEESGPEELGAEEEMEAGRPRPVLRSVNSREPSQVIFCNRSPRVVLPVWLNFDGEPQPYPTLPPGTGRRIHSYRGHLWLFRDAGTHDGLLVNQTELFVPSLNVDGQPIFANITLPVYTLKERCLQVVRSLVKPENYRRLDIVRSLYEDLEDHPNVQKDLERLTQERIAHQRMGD

Columns and labels:
[1] = biological target: T1, Myc-UBE3B, full-length (FL) (human) (UniProt Q7Z3V4); assay: co-IP; HEK293T and HeLa cells transfected with Flag-VHL and Myc-UBE3B; IP with anti-Flag or anti-Myc antibody and protein G/A magnetic beads overnight at 4 °C; lysis buffer 10 mM Tris-HCl, 150 mM NaCl, 1 mM EDTA, 0.5% NP-40, pH 7.4
T1 sequence: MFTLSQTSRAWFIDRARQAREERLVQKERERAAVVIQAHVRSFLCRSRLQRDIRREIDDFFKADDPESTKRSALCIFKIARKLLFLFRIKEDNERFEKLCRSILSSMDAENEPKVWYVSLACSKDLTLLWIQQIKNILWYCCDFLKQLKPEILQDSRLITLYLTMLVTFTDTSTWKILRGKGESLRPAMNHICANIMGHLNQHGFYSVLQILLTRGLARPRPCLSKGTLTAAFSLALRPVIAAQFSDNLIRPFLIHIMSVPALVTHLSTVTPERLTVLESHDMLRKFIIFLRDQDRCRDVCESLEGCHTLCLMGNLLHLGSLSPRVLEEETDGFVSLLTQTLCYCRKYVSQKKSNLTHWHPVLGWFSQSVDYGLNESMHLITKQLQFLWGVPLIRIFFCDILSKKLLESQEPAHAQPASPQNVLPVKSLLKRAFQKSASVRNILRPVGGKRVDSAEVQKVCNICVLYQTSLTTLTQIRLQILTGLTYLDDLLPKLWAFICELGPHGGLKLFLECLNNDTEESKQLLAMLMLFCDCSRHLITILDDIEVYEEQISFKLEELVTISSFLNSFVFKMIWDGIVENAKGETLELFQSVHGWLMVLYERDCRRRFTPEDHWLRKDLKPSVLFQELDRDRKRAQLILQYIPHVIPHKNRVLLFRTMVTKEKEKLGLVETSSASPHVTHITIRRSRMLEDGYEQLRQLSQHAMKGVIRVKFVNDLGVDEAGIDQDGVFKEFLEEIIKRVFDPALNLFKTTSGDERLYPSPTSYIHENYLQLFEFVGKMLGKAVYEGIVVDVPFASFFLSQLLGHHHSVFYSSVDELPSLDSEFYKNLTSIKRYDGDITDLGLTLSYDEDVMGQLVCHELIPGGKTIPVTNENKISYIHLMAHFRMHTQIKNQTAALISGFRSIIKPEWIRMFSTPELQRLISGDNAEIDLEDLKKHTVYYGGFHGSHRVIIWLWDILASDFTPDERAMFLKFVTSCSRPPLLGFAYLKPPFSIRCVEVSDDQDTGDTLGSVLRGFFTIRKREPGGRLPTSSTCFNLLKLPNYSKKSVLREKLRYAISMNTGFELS

[2] = biological target: T2, endogenous UBE3B (human (endogenous in MDA-MB-231 and T47D)) (UniProt Q7Z3V4); assay: co-IP; endogenous proteins in MDA-MB-231 and T47D cells treated with 10 μM MG132 for 6 h before harvest; IP of UBE3B or of VHL; lysis buffer 10 mM Tris-HCl, 150 mM NaCl, 1 mM EDTA, 0.5% NP-40, pH 7.4
T2 sequence: T1 sequence

| Substance | binding [1] | binding [2] |
| --- | --- | --- |
| Flag-VHL, full-length (from UniProt P40337 1-213) | binds |  |
| endogenous VHL (from UniProt P40337 1-213) |  | binds |
